# Some of the results follow. The main result of the screen is listed elsewhere. These columns were measured beside it and carry no call. Most of these compounds were active or inconclusive in the main read-out, so they are no random draw. The note in brackets gives the kind of curve behind each potency; many fits are weak.
# Test: qHTS Assay for Lipid Storage Modulators in Drosophila S3 Cells;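 on cell number change: cells counted by Cell Tracker Red CMTPX staining in the red channel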
# Details: BODIPY lipid droplet fluorescence, 18-24 h; for cell number change: measured here: cell count max response, cells fed with added oleic acid
# In short: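 Drosophila S3 cells got compounds at several concentrations plus oleic acid (400 uM solution). Laser-scanning cytometry with 488 nm excitation read lipid droplets at 500-530 nm and cells at 575-640 nm. Percent activity was relative to 20 uM Triacsin C.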
# [1] = measured here: lipid fluorescence (Fed channel) AC50, cells fed with added oleic acid
# [2] = measured here: cell number channel AC50, cells fed with added oleic acid
Structure (SMILES),cell number change,AC50 [1],AC50 [2]
CCN1CN(Cc2ccccc2)CNC1=S,-7.22%,"0.00461 µM [falling, full curve, poor fit]",
O=C(CS(=O)(=O)c1ccc(Cl)cc1)NCCS(=O)(=O)c1ccc(Cl)cc1,,,"0.731 µM [rising, single point]"
COc1ccc(/C=N/NS(C)(=O)=O)c(OC)c1,-5.47%,"11.6 µM [rising, partial curve, poor fit]",
CCCc1ccc(NS(=O)(=O)c2c(C)oc(C)c2C(=O)OC)cc1,,"2.59 µM [rising, partial curve]",
Cc1ccc2c(c1)N(CC(=O)N1CCOCC1)C(=O)C(C)O2 (stereo not given),15%,"29.1 µM [rising, single point]",
C=C(C)Cn1c(C)cc(C)c(S(=O)(=O)c2ccc(C)cc2)c1=O,,"0.116 µM [rising, full curve, poor fit]",
Fc1ccc(Nc2nc(N3CCOCC3)nc(N3CCOCC3)n2)cc1Cl,21.5%,"4.11 µM [falling, full curve]",
COc1ccccc1CNC(=O)C1COc2ccccc2O1 (stereo not given),,"16.4 µM [rising, partial curve]",
CCc1nnc(N/N=C\c2ccc(OC(C)=O)c(OC)c2)n1N,-13.1%,"29.1 µM [falling, single point]",
N/C(=N\NC(=O)c1cccs1)c1cc2ccccc2oc1=O,18.9%,,"0.731 µM [rising, full curve, poor fit]"
CC1CCCC(C)N1C(=O)c1ccc(S(=O)(=O)N2CCCC2)cc1 (stereo not given),-31.6%,,"4.11 µM [falling, partial curve, poor fit]"
CC(C)CC(=O)NC(=S)NNC(=O)c1cccc([N+](=O)[O-])c1,8.79%,"14.6 µM [rising, single point]",
C=CCOc1nc2c(c(=O)n(Cc3ccc(Cl)cc3)c(=O)n2C)n1C,2.37%,"0.366 µM [rising, full curve, poor fit]",
Cc1ccc(CSc2nc3c(cc2C#N)CCC3)cc1,10.8%,"13 µM [rising, single point]",
COc1cccc(/C=N/Nc2ncnc3scc(-c4ccccc4)c23)c1O,-23.1%,"29.1 µM [falling, single point]",
Cc1ccccc1CSc1nnnn1-c1ccc(C(N)=O)cc1,23.9%,"4.11 µM [rising, full curve]",
Cc1ccc(NC(=O)Nc2cccc3ccccc23)cc1,-12.9%,,
CCn1cc(C(=O)N2CCc3ccccc3C2)c(=O)c2cc(S(=O)(=O)N3CCCCC3)ccc21,8.94%,"0.82 µM [falling, single point]",
CCn1c(/C=C/c2ccccc2C)nc2ccccc2c1=O,-12.5%,"0.116 µM [falling, full curve, poor fit]","0.164 µM [falling, full curve, poor fit]"

# In the list so far, 2 have a thiophene ring, fused or not.
Structure (SMILES),cell number change,AC50 [1],AC50 [2]
N/C(=N\NC(=O)c1cccs1)c1cc2ccccc2oc1=O,18.9%,,"0.731 µM [rising, full curve, poor fit]"
COc1cccc(/C=N/Nc2ncnc3scc(-c4ccccc4)c23)c1O,-23.1%,"29.1 µM [falling, single point]",

# Further structures follow:

Structure (SMILES),cell number change,AC50 [1],AC50 [2]
NC(=O)C1CCN(C(=S)NCc2ccc3c(c2)OCO3)CC1,-18.7%,"3.66 µM [falling, full curve]","2.91 µM [falling, single point]"
CSCCC(NC(=O)COc1ccccc1)C(=O)NCc1cccs1 (stereo not given),-20.2%,"6.51 µM [falling, single point]",
NS(=O)(=O)c1ccc(Nc2nc(-c3ccc4ccccc4c3)cs2)cc1,-8.52%,"0.146 µM [rising, full curve, poor fit]","0.259 µM [rising, full curve, poor fit]"
Clc1ccc(/C=N/N2CCN(Cc3ccccc3Cl)CC2)cc1,-9.89%,"6.51 µM [rising, partial curve, poor fit]",
COc1ccccc1N1CCN(C(=O)C2CCN(S(=O)(=O)c3ccc4c(c3)CC(C)N4C(=O)C3CC3)CC2)CC1 (stereo not given),19.7%,"5.8 µM [falling, single point]",
COc1ccc(Nc2sc(C(=O)Nc3cccc(Cl)c3)c(N)c2C(=O)Nc2ccccc2OC)cc1,-44.8%,"18.4 µM [falling, single point]","18.4 µM [falling, single point]"
Cc1ccc(CN2CC(C(=O)Nc3cc(S(C)(=O)=O)ccc3Cl)CC2=O)cc1 (stereo not given),47.4%,,
Cn1ccnc1C(O)c1cc(C(C)(C)C)c(O)c(C(C)(C)C)c1 (stereo not given),38.8%,"2.31 µM [falling, partial curve, poor fit]","18.4 µM [rising, single point]"
O=C(CNS(=O)(=O)c1cccc2nsnc12)NCCc1ccccc1,-3.82%,"29.1 µM [falling, single point]",
CC(=O)c1cc2c(cc1NC(=O)Cn1nc(-c3ccc(C)cc3)ccc1=O)OCO2,-26.9%,,
COc1ccc(C2(c3ccc(OC)cc3)NC(=O)N(CC(=O)N(C)C3CCC(C)CC3)C2=O)cc1 (stereo not given),27.8%,"7.31 µM [rising, partial curve]",
N/C(=N\OS(=O)(=O)c1ccc(Br)cc1)c1ccncc1,0.103%,"13 µM [rising, single point]",
O=C(NC1CC2CCCC(C1)N2C1CC1)NC12CC3CC(CC(C3)C1)C2 (stereo not given),12.6%,"6.51 µM [falling, single point]",
COc1ccc(C(CC(=O)c2ccccc2)C2CCCCC2=O)cc1 (stereo not given),55.5%,,
COc1cccc(/C=C/c2nc(S(=O)(=O)c3ccccc3)c(N(C)C)o2)c1,,"5.8 µM [rising, single point]",
Cc1ccc(C)c(S(=O)(=O)N2CCN(CC(=O)Nc3sccc3C#N)CC2)c1,-41.8%,"13 µM [falling, partial curve]","2.31 µM [falling, partial curve, poor fit]"
O=C(Nc1ccc(OCc2ccccc2)cc1)c1cccnc1,73.7%,"14.6 µM [rising, partial curve]","4.11 µM [rising, full curve]"
O=C(NCc1ccc2c(c1)OCO2)Nc1ccc([N+](=O)[O-])cc1,2.48%,,"0.411 µM [rising, single point]"
CC(C)CCn1c(=O)c2sccc2n2c(CCCC(=O)N3CCN(c4ccccn4)CC3)nnc12,-32.7%,"4.11 µM [falling, partial curve]","5.8 µM [falling, partial curve, poor fit]"

# From PubChem BioAssay AID2685 (National Center for Advancing Translational Sciences (NCATS), 2010)
